Assay: In vitro permeability study in 6 station Franz diffusion cell apparatus using porcine buccal mucosa
Conditions: penetration enhancer in psilocybin film formulation, FIG. 4 and FIG. 5

## CCCCCCCCCCCCCCCC[n+]1ccccc1 [cetylpyridinium chloride (CPC), cetylpyridinium chloride]
  effect of penetration enhancer on psilocybin diffusion through porcine buccal mucosa: improved buccal permeation
Listed as cetylpyridinium chloride CPC
  effect of penetration enhancer on psilocybin diffusion through porcine buccal mucosa: significate increase

— patent US20240189331A1, “NOVEL […] FILM FORMULATION” (INTELGENX CORP., priority 2021, published 2024)
